# In PubChem BioAssay AID540276 (National Center for Advancing Translational Sciences (NCATS), 2011):
# About 5,400 (1.8%) of roughly 300,000 compounds were called active. Inconclusive results, whose numbers are uncertain, are shown with a selection of clear calls. The call rests on the fitted dose curve; tested in HEK293 cells. A potency beside an inconclusive call is a rough fit, not a confirmed value.
# Assay: qHTS for inhibitors of binding or entry into cells for Marburg Virus
# Conditions: Marburg virus pseudotyped entry inhibition, cell reporter; series mostly up to 37.8 µM
# Potency means the concentration at half of the fitted maximal effect.
row,SMILES,Potency
1,CCCCOc1ccc(C2C(=O)N(C3CCCCC3)CC(=O)N2CC2CCCO2)cc1 (stereo unspecified),"inconclusive: 8.2 µM [inhibitor, single point]"
2,O=C(CC1OC(=O)c2ccccc21)Nc1ccc(Cl)c(S(=O)(=O)N2CCCCC2)c1 (stereo unspecified),"inconclusive: 35.5 µM [inhibitor, single point]"
3,Cc1nnc(N2C(=O)c3oc4ccccc4c(=O)c3C2c2ccc(C(C)(C)C)cc2)s1 (stereo unspecified),"inconclusive: 35.5 µM [activator, single point]"
4,COc1ccc(C(=O)CSc2nc(C)cc(C)c2C(=O)Nc2ccccc2C)cc1,inactive
5,CC(=O)Nc1sc(C)c(C)c1C(=O)OCCOc1ccccc1,"inconclusive: 35.5 µM [inhibitor, single point]"
6,O=C(C1=NNC2C(=O)N(c3ccccc3)C(=O)C12)c1nc(Cl)ccc1Cl (stereo unspecified),"inconclusive: 6.51 µM [activator, single point]"
7,COc1cccc(OCC(=O)NNC(=O)C(=O)N2CCCC2)c1,"inconclusive: 17.8 µM [activator, single point]"
8,COc1cc(C)c(C(C)C)cc1S(=O)(=O)NC1CC(C)(C)NC(C)(C)C1,"inconclusive: 35.5 µM [inhibitor, single point]"
9,COc1ccc(-n2nc([N+](=O)[O-])c(=NC3CCN(Cc4ccccc4)CC3)n2O)cc1,"inconclusive: 14.1 µM [inhibitor, single point]"
10,CCNc1nc(Sc2ccc(C)cc2)cc(C(F)(F)F)n1,"inconclusive: 29.1 µM [inhibitor, single point]"
11,O=C(c1ccc(F)cc1)c1cc2ccc(O)cc2oc1=O,"inconclusive: 11.2 µM [activator, partial curve, poor fit]"
12,Cc1cc2nc(N3CCN(C(=O)c4cccs4)CC3)sc2cc1C,"inconclusive: 3.55 µM [activator, partial curve, poor fit]"
13,Cn1c(N)c(C(=O)COC(=O)c2ccccc2C(=O)c2ccc(Cl)c([N+](=O)[O-])c2)c(=O)n(C)c1=O,active: 11.2 µM
14,CN(C)c1ccc(C=Cc2cnccn2)cc1,"inconclusive: 10 µM [inhibitor, single point]"
15,Cc1ccccc1NC(=S)NCc1ccccc1,"inconclusive: 0.562 µM [activator, partial curve, poor fit]"
16,C=CCOC(=O)c1[nH]c2c(c1C)C(=O)CC(c1cc(OC)c(OC)c(OC)c1)C2 (stereo unspecified),"inconclusive: 7.31 µM [inhibitor, partial curve, poor fit]"
17,CN(C)c1ccc(-n2cc3c(=O)n(C)c(=O)n(C)c3c2)cc1,"inconclusive: 1.26 µM [activator, partial curve]"
18,Cc1ccc(CNc2nc(-c3ccco3)nn2S(C)(=O)=O)cc1,"inconclusive: 3.55 µM [activator, single point]"
19,O=C(NCc1cccs1)c1ccc(Cl)s1,inactive
20,C=CCSC1=Nc2sccc2C2=NC(=O)CN12,inactive
21,COc1ccc2c(c1)c(=O)c(C(=O)c1ccc(C)c(C)c1)cn2CC(=O)Nc1ccc2c(c1)OCCO2,inactive

row,SMILES,Potency
1,COc1cccc(CNC(=O)C(=O)NCCC2CCCCN2S(=O)(=O)c2ccc(C)cc2)c1 (stereo unspecified),"inconclusive: 35.5 µM [inhibitor, partial curve, poor fit]"
2,CCn1c(=O)n(CC)c2cc(N3CCCC3)c(NC(=O)c3ccccc3F)cc21,"inconclusive: 8.91 µM [inhibitor, single point]"
3,COC(=O)C(NS(C)(=O)=O)(c1c(C)[nH]c2ccccc12)C(F)(F)F (stereo unspecified),"inconclusive: 6.31 µM [inhibitor, single point]"
4,O=C(Cc1ccccc1)NCC(=O)N1CCCCCC1,inactive
5,CC(C)CCOP(=O)(c1ccc(N(C)C)cc1)C(O)c1ccccc1F (stereo unspecified),"inconclusive: 6.51 µM [inhibitor, partial curve, poor fit]"
6,COc1cc(CCN2C(=O)c3cccc4cccc(c34)C2=O)c(S(=O)(=O)N2CCC(C)CC2)cc1OC,"inconclusive: 7.94 µM [inhibitor, partial curve, poor fit]"
7,CCN(C(=O)c1cc2cc(OC)ccc2oc1=O)c1cccc(C)c1,inactive
8,C/C(=N\Nc1ccc([N+](=O)[O-])cc1)c1ccco1,"inconclusive: 1.46 µM [activator, full curve]"
9,CN1CCN(C2=NC(=O)/C(=C/c3ccccc3OS(=O)(=O)c3ccccc3)S2)CC1,"inconclusive: 10 µM [activator, partial curve, poor fit]"
10,C=CCn1c(SCc2ccccc2C#N)nnc1-c1cc(Br)ccc1O,"inconclusive: 2.06 µM [inhibitor, partial curve]"
11,Cc1ccc(C)c(N2CCN(Cc3nnnn3C3CCCCC3)CC2)c1,"inconclusive: 35.5 µM [inhibitor, single point]"
12,Cc1ccc(C)c(N2CCN(C(=O)CCC(=O)Nc3ccc4nc(N5CCCCC5)cc(C)c4c3)CC2)c1,"inconclusive: 5.62 µM [inhibitor, single point]"
13,CCN(CC)CCOc1cc2c(nn1)Oc1ccccc1N2C,"inconclusive: 6.51 µM [inhibitor, full curve, poor fit]"
14,CCOc1ccc(C(=O)Nc2c3c(nn2-c2ccccc2)CS(=O)(=O)C3)cc1,inactive
15,COC(=O)NC(C(=O)OC)(C(=O)OC)c1ccccc1,"inconclusive: 5.31 µM [activator, single point]"
16,CC(OC(=O)c1cccc(-n2cnnn2)c1)C(=O)NCc1ccccc1 (stereo unspecified),inactive
17,O=c1[nH]c(C2CCN(S(=O)(=O)c3ccccc3C(F)(F)F)CC2)nc2c1nnn2Cc1ccccc1,"inconclusive: 22.4 µM [inhibitor, single point]"
18,O=C(CCN1C(=O)c2ccccc2S1(=O)=O)Nc1ccc2c(c1)OCCO2,inactive
19,C[C@H]1Cc2c(COc3ccccc3)nc3c(c2CO1)CN(S(=O)(=O)c1ccc2c(c1)OCCN2C)CC3,"inconclusive: 1.68 µM [inhibitor, partial curve, poor fit]"
20,Cc1cc(C)n(-c2nc3ccccc3n3c(C)nnc23)n1,"inconclusive: 35.5 µM [activator, single point]"

# Part of the list above, with bars between the fields:
row | SMILES | Potency
5 | CC(C)CCOP(=O)(c1ccc(N(C)C)cc1)C(O)c1ccccc1F (stereo unspecified) | inconclusive: 6.51 µM [inhibitor, partial curve, poor fit]
11 | Cc1ccc(C)c(N2CCN(Cc3nnnn3C3CCCCC3)CC2)c1 | inconclusive: 35.5 µM [inhibitor, single point]
14 | CCOc1ccc(C(=O)Nc2c3c(nn2-c2ccccc2)CS(=O)(=O)C3)cc1 | inactive
